Measurements: article PMC7616792, “The structural mechanism of dimeric DONSON in replicative helicase activation” (Molecular cell, 2023)
Numbering of substitutions follows the chain as printed. Results are given in words; binding and its absence hold for the method and conditions named. For part of these data: Binding seen in cells or lysates may run through a third protein. Sequences can lack the tags named with a protein.

Key:
[1] = target: T1, recombinant FLAG5, His6-tagged GINS (Psf1, Psf2, Psf3 and Sld5) (Xenopus laevis) (UniProt Q7ZT47+Q7ZT46+Q7ZT01+Q7ZT48); assay: co-IP; recombinant FLAG-tagged GINS immunoprecipitated after incubation with recombinant DONSON variants; blot with an anti-DONSON antibody (Figure S5B); both purified
T1 sequence 1: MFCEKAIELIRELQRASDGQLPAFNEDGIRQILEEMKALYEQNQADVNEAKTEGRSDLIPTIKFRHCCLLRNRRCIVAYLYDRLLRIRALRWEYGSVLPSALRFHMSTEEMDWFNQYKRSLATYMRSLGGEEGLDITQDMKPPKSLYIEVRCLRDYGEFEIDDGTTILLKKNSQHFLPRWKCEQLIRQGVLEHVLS
T1 sequence 2: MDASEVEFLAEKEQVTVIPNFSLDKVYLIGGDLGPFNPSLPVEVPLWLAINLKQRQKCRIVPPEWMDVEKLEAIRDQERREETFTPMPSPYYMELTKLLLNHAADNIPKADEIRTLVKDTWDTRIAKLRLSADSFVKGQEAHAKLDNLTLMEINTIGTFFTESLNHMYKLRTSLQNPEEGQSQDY
T1 sequence 3: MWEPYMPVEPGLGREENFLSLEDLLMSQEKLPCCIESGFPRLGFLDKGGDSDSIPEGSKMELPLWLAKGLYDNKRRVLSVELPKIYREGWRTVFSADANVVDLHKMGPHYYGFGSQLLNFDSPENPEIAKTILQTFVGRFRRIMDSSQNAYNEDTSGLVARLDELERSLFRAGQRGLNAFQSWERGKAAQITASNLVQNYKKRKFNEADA
T1 sequence 4: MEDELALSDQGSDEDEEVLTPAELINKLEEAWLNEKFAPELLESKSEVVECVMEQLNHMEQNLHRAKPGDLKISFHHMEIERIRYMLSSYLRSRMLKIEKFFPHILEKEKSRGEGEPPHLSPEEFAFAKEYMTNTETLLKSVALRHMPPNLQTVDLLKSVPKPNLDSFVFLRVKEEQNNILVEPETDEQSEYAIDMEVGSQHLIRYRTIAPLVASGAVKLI

[2] = target: T2, human DONSON Met446Thr, GFP-tagged (second copy FLAG-tagged) (human) (UniProt Q9NYP3); assay: co-IP; 293FT cells transfected with GFP-tagged (and FLAG-tagged) DONSON, lysed with 0.5-1% NP40 and benzonase; GFP-DONSON captured on GFP-Trap agarose beads 5 h at 4°C, washed with 100-300 mM NaCl; blots for FLAG, GINS, MCM2, PCNA
T2 sequence: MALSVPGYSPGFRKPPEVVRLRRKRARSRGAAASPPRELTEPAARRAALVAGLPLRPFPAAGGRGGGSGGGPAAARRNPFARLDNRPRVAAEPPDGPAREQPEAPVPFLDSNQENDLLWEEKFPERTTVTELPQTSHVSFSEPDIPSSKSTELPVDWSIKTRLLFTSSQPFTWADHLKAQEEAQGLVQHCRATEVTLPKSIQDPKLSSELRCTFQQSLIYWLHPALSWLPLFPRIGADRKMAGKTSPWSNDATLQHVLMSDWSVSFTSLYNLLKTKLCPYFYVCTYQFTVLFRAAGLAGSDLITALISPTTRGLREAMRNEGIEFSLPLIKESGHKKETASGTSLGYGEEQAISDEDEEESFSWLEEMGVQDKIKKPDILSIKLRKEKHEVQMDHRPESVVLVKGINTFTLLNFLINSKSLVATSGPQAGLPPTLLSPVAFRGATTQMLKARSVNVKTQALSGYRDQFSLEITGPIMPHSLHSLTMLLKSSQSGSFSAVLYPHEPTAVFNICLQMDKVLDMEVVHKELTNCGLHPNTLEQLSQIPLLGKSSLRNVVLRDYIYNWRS

[3] = target: T3, human DONSON Trp228Leu, GFP-tagged (second copy FLAG-tagged) (human) (UniProt Q9NYP3); assay: as above
T3 sequence: T2 sequence with W228L, T446M

B1: DONSONΔ24 (truncation of residues 1–24) (domain or fragment, Xenopus laevis, UniProt Q5U4U4 25-579, looked up)
chain: RSRSEASKTGLSPFSPGDVIKRVPGLRPFSPGPNKGAGVKRRNPFASLENTVCSPVKRRAETVAEYGAASLEPRALSAVRPSCLGQDSPEPPQFNSVEDVIWGDPLAADADPLVKTESPEKPAPACEIPKGSVTFPADWSLKTRLLFTSSHSFSWADHLKAQEEAQGLVMQCRATAVNLPHSIQEPKLSTDLRCAFQQSLVHWIHPSLPWVQLFPRIGVDRKMAGKNTPWSQDESLQQVLMSEWALSFTSLYNLLKAKLCPYFYVCTYQFTVLFRAAGLAGSDVITAVMSPTTRGLREAMKNEGITFSQPLVEDDTGKKQKKPEAASQGDINPEKENGTAEADEASDESDEDESFSWLEEMGVEDKIKKPDSISIKLRKEKNEVKLDHKPESVVLVKGTNTFTLLNFLINCKSIVAAAGLQAGLPPTLLSPVAFRGATMHALKARSVNVKTRVNSGYKDQFSLEITGPIMPHSLHSLTMLLQSAQRGSFSAGLYTHEPTAVFNTPIHSQAVKEISADLQNCGLHPCTVEQLTQVNELGKLSLRHLEMTDYRYTWK
notes: DONSON, Xenopus laevis, without residues 1-24; See the note of m17 on a possible Myc tag; also called DONSON D24 (D1-24); pET28a-DONSON Δ24 (1-24 removed); source: E. coli BL21 (DE3), purified (Ni-NTA)
**Q.** With B1 as the binder, how does the binding [1] read?
**A.** The binding was “no binding”.

B2: human DONSON Met446Thr, GFP-tagged (second copy FLAG-tagged) (protein, UniProt Q9NYP3 1-566)
chain: T2 sequence
**Q.** B2 was tested. Which binding [2] did it give?
**A.** Its binding is “no binding”.

B3: human DONSON Trp228Leu, GFP-tagged (second copy FLAG-tagged) (protein, UniProt Q9NYP3 1-566)
chain: T2 sequence with W228L, T446M
**Q.** For B3, which binding [3] is on record?
**A.** The binding was “no binding”.
